# Results taken from patent US20080300147A1, “Detection and Treatment of Fibrotic Disorders” (priority 2004, published 2008).
# Legend:
# [1] = system: leiomyoma smooth muscle cells (LSMC); assay: cDNA microarray gene expression profiling of LSMC treated with GnRHa, TGF-β1 or TGF-β type II receptor antisense; type: cell-based, human; conditions: LSMC and MSMC together
# myometrium = assay: cDNA microarray gene expression profiling of myometrium, GnRHa-treated vs untreated patients; type: in vivo, human
# leiomyoma = assay: cDNA microarray gene expression profiling of leiomyoma, GnRHa-treated vs untreated patients; type: in vivo, human
molecule,measurement,setting,value
"TGF-β1: human recombinant TGF-β1 (R&D System), used at 2.5 ng/ml",genes differentially expressed and regulated in response to TGF-β,"[1]; TGF-β1 2.5 ng/ml, 2, 6 and 12 hours, p≦0.001",310 genes
"CCNC(=O)[C@@H]1CCCN1C(=O)[C@H](CCCNC(=N)N)NC(=O)[C@H](CC(C)C)NC(=O)[C@@H](CC(C)C)NC(=O)[C@H](Cc1ccc(O)cc1)NC(=O)[C@H](CO)NC(=O)[C@H](Cc1c[nH]c2ccccc12)NC(=O)[C@H](Cc1c[nH]cn1)NC(=O)[C@@H]1CCC(=O)N1 [GnRHa, leuprolide acetate]",genes up (+) in GnRH-treated,myometrium,47 genes
same,transcripts downregulated due to GnRHa therapy,myometrium,89 transcripts
same,genes targeted by GnRHa therapy,"myometrium; excluding 31 EST, p≦0.02",167 genes
same,genes up (+) in GnRH-treated,leiomyoma,74 genes
same,transcripts downregulated due to GnRHa therapy,leiomyoma,96 transcripts
same,genes targeted by GnRHa therapy,"leiomyoma; excluding 26 EST, p≦0.02",170 genes
same,genes differentially expressed and regulated in response to GnRHa,"[1]; 0.1 μM, 2, 6 and 12 hours, including 36 EST, p≦0.005",281 genes
